64 compounds from PubChem BioAssay AID493014 (National Center for Advancing Translational Sciences (NCATS), 2011) can be followed below.

The nature of the test: qHTS Assay to Find Inhibitors of Chronic Active B-Cell Receptor Signaling. To be noted: ABC-DLBCL IkBa-CBG/CBR reporter, luminescence ratio (green luciferase fused to IkBa over red control in TMD8 lymphoma cells), 4 h. Put shortly: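 Compounds up to 46 uM were incubated four hours with TMD8 cells whose green CBG68 luciferase is fused to IkappaBalpha; red CBR luminescence normalised the signal, and concentration-effect curves were fitted to fusion, red and ratio data.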

Setting [1] is: measured here: CBR red luminescence, cell number.
The mark [2] stands for this setting: measured here: IkBa-CBG green luminescence.

This is one part of the list. Shown are side measurements of this screen, not its main read-out; they come without a call. Compounds called inactive in the main read-out are mostly missing here. Potencies come from curve fits of mixed quality, noted in brackets.

One may read the AC50 as the concentration at which the activity in the assay is half-maximal. For the compound `N#C/C(=C\c1ccc(-c2cccc([N+](=O)[O-])c2)o1)C(=O)NCCN1CCOCC1`, under setting [1], the AC50 is 35.5 µM [rising, single point].
The same measure, in the same setting: in the case of `CCCCS(=O)(=O)Nc1ccc2cn[nH]c2c1` it was 10 µM [falling, partial curve, poor fit].
For `COCC(=O)NC(c1ccccc1)c1ccccc1`, the AC50 under setting [1] was 0.092 µM [falling, full curve, poor fit].
Still for that read-out and setting: in the case of `CCCNC(=O)c1nn2cc(Br)cnc2c1Cl` it was 12.6 µM [rising, single point].
Still for that read-out and setting: in the case of `Cc1coc(C)c1C(=O)CC1(O)C(=O)N(CCc2ccccc2)c2ccccc21` (stereo unspecified) it was 13 µM [falling, partial curve, poor fit].
Same read-out and setting: in the case of `COc1cccc(CNC(=O)CN(C)S(=O)(=O)c2ccc3c(c2)CC(C)N3C(C)=O)c1` (stereo unspecified) it was 31.6 µM [falling, partial curve, poor fit]; in that of `CCOC(=O)N1CCN(C(=O)CNC(=O)c2ccc(Cl)cc2)CC1`, 35.5 µM [rising, partial curve, poor fit].
As for `CC(=O)N1CCN=C1SCc1cccc(C(F)(F)F)c1`, the concentration at half-maximal activity (AC50) under setting [1] is 18.4 µM [rising, partial curve] and the AC50 under setting [2] is 32.6 µM [falling, partial curve, poor fit].
In the case of `COc1ccc(N2CCN(C(=O)CCc3ccc(S(=O)(=O)NC(C)C)cc3)CC2)cc1`, under setting [1], the AC50 is 23.1 µM [falling, partial curve, poor fit].
For the compound `Cc1cc(C(=O)N2CC=C(c3ccccc3)CC2)c2ccccc2n1`, the AC50 is, setting by setting: under setting [1], 29.1 µM [rising, single point]; under setting [2], 18.4 µM [falling, single point].
Regarding `CN1CCN(C(=O)c2cc3nc(-c4ccccc4)cc(-c4ccccc4)n3n2)CC1`, the AC50 under setting [1] was 20.6 µM [falling, single point].
Regarding `Cc1c(OCC(=O)N2CCC(C(=O)O)CC2)ccc2c3c(c(=O)oc12)CCCC3`, the AC50 under setting [1] is 22.4 µM [falling, single point].
For `CO/N=C/NC(=O)NOCc1ncc(C(F)(F)F)cc1Cl`, the AC50 under setting [1] is 8.2 µM [rising, partial curve, poor fit].
In the case of `Cn1cccc1Cc1nnc(SCC(=O)Nc2nccs2)n1C`, the AC50 under setting [1] is 17.8 µM [falling, partial curve].
Turning to `O=C(O)c1ccc2c(c1)C(=O)/C(=C/c1ccccc1)C2=O`, the AC50 under setting [1] was 1.84 µM [falling, full curve].
Still for that read-out and setting: in the case of `CCN(CC)CCN1C(=O)C(=O)/C(=C(/O)c2ccncc2)C1c1ccccc1` (stereo unspecified) it was 35.5 µM [rising, single point].
`Cc1cc(C)cc(NC(=O)CCCN2C(=O)C(c3ccccc3)Oc3cccnc32)c1` (stereo unspecified): under setting [1], the AC50 was 22.4 µM [falling, single point].
Still for that read-out and setting: the same measure for `O=C(CCc1ccccc1Cl)Nc1cc2c(cc1C(=O)O)OCCCO2`: 29.1 µM [rising, single point]; for `O=C(Nc1cccc(N2C(=O)C=CC2=O)c1)c1cccs1`: 20.6 µM [falling, single point].
`COc1ccccc1/C=C/C=N/n1c(-c2ccncc2)n[nH]c1=S`: the AC50 under setting [1] was 18.4 µM [falling, partial curve, poor fit].
Same read-out and setting: the same measure for `COc1cc(CNC2CCCC2)c(Br)cc1OC1CCCC1`: 14.1 µM [falling, single point]; for `O=C(Nn1c(O)c(C=C2N=c3ccccc3=N2)sc1=S)c1ccccc1Cl`: 10.3 µM [falling, partial curve, poor fit]; for `Cc1cc(N2CCOCC2)nc2ccc(NC(=S)N3CCCCC3C)cc12` (stereo unspecified): 35.5 µM [falling, single point].
The same measure, in the same setting: in the case of `CC(=N)c1c(O)c2ccccc2oc1=O` it was 14.1 µM [falling, partial curve, poor fit]; in that of `CCOC(=O)CN1C(=O)C(Sc2n[nH]c(-c3ccc(C)cc3)n2)CCc2ccccc21` (stereo unspecified), 5.62 µM [falling, partial curve, poor fit].
With `C=CCN=c1sc(C(=O)OC)cc(=O)n1CC=C`, the AC50 under setting [1] was 17.8 µM [falling, single point].
Same read-out and setting: the same measure for `CCOc1ccc(C(=O)Nc2ccc3c(c2)OCCO3)cc1[N+](=O)[O-]`: 3.55 µM [falling, full curve, poor fit].
On to `CCOC(=O)Cn1nnc(-c2ccc([N+](=O)[O-])cc2)n1`, for which the AC50 under setting [1] is 20 µM [rising, single point].
Same read-out and setting: in the case of `Cc1ccc2ccc(C(Nc3ccccn3)c3ccccc3)c(O)c2n1` (stereo unspecified) it was 35.5 µM [falling, single point]; in that of `O=C(Nc1nnc(-c2ccccc2F)s1)Nc1ccccc1F`, 10 µM [rising, partial curve, poor fit].
The same measure, in the same setting: the same measure for `O=C(OC(C(=O)Nc1ccc(Cl)c(C(F)(F)F)c1)c1ccccc1)C1=COCCO1` (stereo unspecified): 29.1 µM [falling, single point].
The same measure, in the same setting: the same measure for `Cc1ccc(S(=O)(=O)c2nc(-c3ccccc3Cl)oc2N2CCN(C)CC2)cc1`: 0.231 µM [rising, full curve, poor fit]; for `N/C(Cc1ccc([N+](=O)[O-])cc1)=N\OC(=O)C1CCCCC1`: 10 µM [falling, partial curve].
As to `COc1ccc(NCC(O)Cn2c(C)c(C)c3ccccc32)cc1` (stereo unspecified), the AC50 under setting [1] is 8.91 µM [falling, partial curve].
Consider `Clc1cccc(CSc2nnc(-c3sccc3-n3cccc3)o2)c1`, for which, under setting [1], the AC50 was 14.1 µM [rising, single point].
As for `C/C(=N\NC(=S)Nc1c(C)cccc1C)c1ccc(OC(F)F)cc1`, the AC50 under setting [1] is 1.03 µM [rising, full curve, poor fit] and the AC50 under setting [2] is 18.4 µM [falling, single point].
As for `CCOC(=O)C1=C(C)N(c2ccccc2)C(=O)C1`, under setting [1], the AC50 is 4.61 µM [falling, single point].
Still for that read-out and setting: the same measure for `CC(C)(C)c1ccc(NC(=O)COC(=O)C2(C)CC2(Cl)Cl)cc1` (stereo unspecified): 35.5 µM [falling, single point].
Still for that read-out and setting: the same measure for `O=C(NCc1ccccc1Cl)C(=O)NCC(c1ccco1)N1CCOCC1` (stereo unspecified): 14.1 µM [falling, partial curve, poor fit].
`CC(=O)c1nnn(-c2nc(N3CCCC3)nc(N(c3ccccc3)c3ccccc3)n2)c1C`: the AC50 by setting is: under setting [1], 6.51 µM [falling, single point]; under setting [2], 5.8 µM [rising, partial curve, poor fit].
Consider `CCCc1cc(=O)[nH]c(SCc2ccc(Cl)cc2)n1`, for which the half-maximal activity concentration (AC50) under setting [1] is 18.4 µM [falling, single point].
For `O=C(CCCN1C(=O)/C(=C/c2cccs2)SC1=S)Nc1cccc(O)c1`, the AC50 under setting [1] was 0.316 µM [falling, full curve, poor fit].
The same measure, in the same setting: the same measure for `N/C(=N/OCc1cccc([N+](=O)[O-])c1)c1nonc1N`: 5.17 µM [rising, full curve].
`N=C1CCCN1CC(=O)c1ccc(Br)cc1`: the half-maximal activity concentration (AC50) under setting [1] was 14.6 µM [rising, partial curve].
In the case of `COc1ccc(CN(Cc2ccccn2)S(=O)(=O)c2ccc(-n3cnnn3)cc2)cc1`, the AC50 under setting [1] was 2.82 µM [rising, partial curve, poor fit].
Turning to `O=C(COC(=O)CNC(=O)c1ccccc1Cl)NC1CCCC1`, the AC50 under setting [1] is 25.9 µM [rising, single point].
As to `CCN(CC)C(=S)SSC(=S)N(CC)CC`, the AC50 by setting is: under setting [1], 11.2 µM [rising, partial curve, poor fit]; under setting [2], 0.184 µM [falling, full curve, poor fit].
Consider `CC(=O)C1C(=O)CC(c2ccc(Cl)cc2)CC1=O` (stereo unspecified), for which the AC50 under setting [1] is 12.6 µM [rising, single point].
For `CCN(CC)c1ncnc2c1sc1nc(C)cc(C)c12`, the AC50 under setting [1] was 3.55 µM [rising, single point].
Still for that read-out and setting: the same measure for `CCOCCOC(=O)C(C)Sc1n[nH]c(=O)[nH]c1=O` (stereo unspecified): 16.4 µM [rising, partial curve, poor fit]; for `Clc1ccc(CCNc2ncnc3c2c(-c2ccccc2)cn3-c2ccccc2)cc1`: 11.2 µM [rising, partial curve]; for `Cc1ccc(Nc2ncccc2C(N)=O)cc1[N+](=O)[O-]`: 0.411 µM [rising, full curve].
For the compound `Oc1cc(-n2cccn2)c(O)cc1-n1cccn1`, the AC50 was 10 µM [falling, partial curve] under setting [1] and 15.8 µM [rising, single point] under setting [2].
As for `CCN1CCN(CC2CC3C=CC2C3)CC1` (stereo unspecified), the AC50 under setting [1] was 29.1 µM [falling, single point].
On the same count and under the same terms, the same measure for `O=C(Nc1ccccc1N1CCCC1)c1cc2ccccc2o1`: 0.013 µM [falling, full curve, poor fit]; for `Cc1cc(C(=O)CCC(=O)NNC(=O)c2ccccc2O)c(C)s1`: 16.4 µM [falling, single point].
For `COCCn1nnnc1C(C(C)C)N(Cc1cccnc1)Cc1ccccc1Cl` (stereo unspecified), the AC50 under setting [1] was 0.461 µM [falling, partial curve, poor fit].
On the same count and under the same terms, the same measure for `CC(C)C(NC(=O)C1CCCCC1)C(=O)Nc1ccc2c(c1)OCCO2` (stereo unspecified): 6.31 µM [rising, single point]; for `O=C(Nc1ccccc1N1CCCCC1)c1ccc(OC(F)F)cc1`: 11.2 µM [rising, partial curve].
The same measure, in the same setting: in the case of `CCOc1nc(C)cc(C)c1S(=O)(=O)c1ccc(Cl)cc1` it was 0.1 µM [rising, full curve, poor fit]; in that of `CCn1c(=O)c2cc(C(=O)Nc3ccccc3OC)sc2c2ccccc21`, 0.282 µM [falling, full curve]; in that of `Cc1ccc(/C=N/NC(=O)C(O)c2ccccc2)o1` (stereo unspecified), 10 µM [falling, partial curve, poor fit].
Still for that read-out and setting: the same measure for `Cc1noc(NS(=O)(=O)c2ccc(N/C=C/C(=O)c3cccnc3)cc2)c1C`: 18.4 µM [rising, partial curve, poor fit].
As to `COc1cccc(/C=N/Nc2cc(C)nc(-c3ccccc3O)n2)c1O`, the AC50 runs as follows: under setting [1], 5.01 µM [falling, full curve]; under setting [2], 3.55 µM [rising, full curve].
